According to the supplement of paper PMC10849652:
The other results are listed elsewhere or left out.

Sequences of proteins named here, by UniProt entry; tags and fusion partners are left off. A change or cut given only in a name is not applied to a line headed by its entry.
UniProt Q15392: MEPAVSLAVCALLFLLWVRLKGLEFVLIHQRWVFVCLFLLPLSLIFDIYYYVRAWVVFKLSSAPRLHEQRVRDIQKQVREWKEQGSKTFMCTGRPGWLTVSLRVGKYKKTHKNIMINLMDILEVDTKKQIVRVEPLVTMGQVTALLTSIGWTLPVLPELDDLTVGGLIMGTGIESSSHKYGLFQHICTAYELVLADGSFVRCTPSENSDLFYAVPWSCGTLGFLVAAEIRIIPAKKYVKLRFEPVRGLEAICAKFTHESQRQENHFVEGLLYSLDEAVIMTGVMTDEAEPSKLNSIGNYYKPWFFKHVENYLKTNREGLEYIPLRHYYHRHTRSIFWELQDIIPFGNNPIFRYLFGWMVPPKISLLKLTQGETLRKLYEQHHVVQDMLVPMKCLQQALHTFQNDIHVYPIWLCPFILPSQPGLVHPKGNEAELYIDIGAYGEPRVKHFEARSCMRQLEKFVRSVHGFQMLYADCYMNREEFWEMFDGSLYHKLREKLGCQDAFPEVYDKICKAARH
UniProt O00148, whole entry, looked up: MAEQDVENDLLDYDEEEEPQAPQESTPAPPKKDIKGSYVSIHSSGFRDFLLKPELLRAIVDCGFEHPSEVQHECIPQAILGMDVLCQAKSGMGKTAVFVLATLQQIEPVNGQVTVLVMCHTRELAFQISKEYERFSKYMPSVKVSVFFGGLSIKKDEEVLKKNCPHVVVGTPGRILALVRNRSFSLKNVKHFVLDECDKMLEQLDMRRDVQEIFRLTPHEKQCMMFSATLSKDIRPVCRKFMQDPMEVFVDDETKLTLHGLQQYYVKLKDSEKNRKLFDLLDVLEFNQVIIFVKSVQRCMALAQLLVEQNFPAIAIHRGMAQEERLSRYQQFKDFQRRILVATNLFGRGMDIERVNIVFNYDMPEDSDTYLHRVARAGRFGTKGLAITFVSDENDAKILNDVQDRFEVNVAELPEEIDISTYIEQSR
UniProt Q7Z4W1: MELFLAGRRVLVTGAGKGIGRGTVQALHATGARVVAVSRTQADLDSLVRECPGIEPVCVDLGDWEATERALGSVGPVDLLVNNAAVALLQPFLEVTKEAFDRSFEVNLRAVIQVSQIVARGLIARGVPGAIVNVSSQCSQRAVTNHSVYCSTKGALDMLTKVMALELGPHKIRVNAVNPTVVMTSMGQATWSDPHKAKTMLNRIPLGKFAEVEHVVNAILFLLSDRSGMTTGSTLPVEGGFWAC
UniProt Q96HY6: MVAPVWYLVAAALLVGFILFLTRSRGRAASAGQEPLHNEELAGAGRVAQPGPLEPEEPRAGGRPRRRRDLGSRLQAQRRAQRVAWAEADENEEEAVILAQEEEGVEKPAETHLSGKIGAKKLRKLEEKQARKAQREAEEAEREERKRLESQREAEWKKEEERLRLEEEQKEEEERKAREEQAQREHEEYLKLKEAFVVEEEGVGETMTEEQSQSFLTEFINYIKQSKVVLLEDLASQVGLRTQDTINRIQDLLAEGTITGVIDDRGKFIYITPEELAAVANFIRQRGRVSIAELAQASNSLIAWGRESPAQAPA
UniProt O60832: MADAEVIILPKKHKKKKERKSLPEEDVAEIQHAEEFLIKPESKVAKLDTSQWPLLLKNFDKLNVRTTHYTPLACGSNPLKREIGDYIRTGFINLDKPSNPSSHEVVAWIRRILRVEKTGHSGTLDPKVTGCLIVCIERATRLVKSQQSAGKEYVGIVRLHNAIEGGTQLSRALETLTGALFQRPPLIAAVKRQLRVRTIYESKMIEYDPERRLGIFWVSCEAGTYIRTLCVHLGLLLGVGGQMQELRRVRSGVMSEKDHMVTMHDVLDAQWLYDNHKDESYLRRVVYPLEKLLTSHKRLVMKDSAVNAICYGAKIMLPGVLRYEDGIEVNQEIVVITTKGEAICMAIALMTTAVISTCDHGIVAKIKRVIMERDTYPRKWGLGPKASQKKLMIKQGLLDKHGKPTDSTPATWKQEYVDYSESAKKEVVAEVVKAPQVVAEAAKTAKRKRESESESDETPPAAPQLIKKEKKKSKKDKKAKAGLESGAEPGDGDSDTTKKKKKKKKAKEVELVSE
UniProt Q96LJ7: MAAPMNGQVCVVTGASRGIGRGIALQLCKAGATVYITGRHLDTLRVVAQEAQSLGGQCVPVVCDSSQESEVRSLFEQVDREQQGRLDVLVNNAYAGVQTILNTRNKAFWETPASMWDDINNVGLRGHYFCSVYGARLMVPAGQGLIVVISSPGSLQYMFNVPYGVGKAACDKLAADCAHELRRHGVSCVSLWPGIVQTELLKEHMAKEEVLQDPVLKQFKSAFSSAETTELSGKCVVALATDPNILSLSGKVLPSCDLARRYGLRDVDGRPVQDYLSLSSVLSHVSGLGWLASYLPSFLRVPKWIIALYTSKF
UniProt Q9UBM7: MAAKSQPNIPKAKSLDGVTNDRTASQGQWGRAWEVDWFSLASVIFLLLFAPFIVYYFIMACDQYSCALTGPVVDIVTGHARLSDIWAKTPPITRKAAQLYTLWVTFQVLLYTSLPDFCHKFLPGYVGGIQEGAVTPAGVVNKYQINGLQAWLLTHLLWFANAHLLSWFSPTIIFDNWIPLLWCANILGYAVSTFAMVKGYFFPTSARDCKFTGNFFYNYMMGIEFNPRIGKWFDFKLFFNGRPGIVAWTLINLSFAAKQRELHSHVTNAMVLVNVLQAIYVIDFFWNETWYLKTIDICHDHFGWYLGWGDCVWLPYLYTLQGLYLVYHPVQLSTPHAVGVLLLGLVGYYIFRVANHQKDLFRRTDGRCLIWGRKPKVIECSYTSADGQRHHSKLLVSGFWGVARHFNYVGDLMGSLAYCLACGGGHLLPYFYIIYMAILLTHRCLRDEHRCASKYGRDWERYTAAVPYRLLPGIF
UniProt Q16531, whole entry, looked up: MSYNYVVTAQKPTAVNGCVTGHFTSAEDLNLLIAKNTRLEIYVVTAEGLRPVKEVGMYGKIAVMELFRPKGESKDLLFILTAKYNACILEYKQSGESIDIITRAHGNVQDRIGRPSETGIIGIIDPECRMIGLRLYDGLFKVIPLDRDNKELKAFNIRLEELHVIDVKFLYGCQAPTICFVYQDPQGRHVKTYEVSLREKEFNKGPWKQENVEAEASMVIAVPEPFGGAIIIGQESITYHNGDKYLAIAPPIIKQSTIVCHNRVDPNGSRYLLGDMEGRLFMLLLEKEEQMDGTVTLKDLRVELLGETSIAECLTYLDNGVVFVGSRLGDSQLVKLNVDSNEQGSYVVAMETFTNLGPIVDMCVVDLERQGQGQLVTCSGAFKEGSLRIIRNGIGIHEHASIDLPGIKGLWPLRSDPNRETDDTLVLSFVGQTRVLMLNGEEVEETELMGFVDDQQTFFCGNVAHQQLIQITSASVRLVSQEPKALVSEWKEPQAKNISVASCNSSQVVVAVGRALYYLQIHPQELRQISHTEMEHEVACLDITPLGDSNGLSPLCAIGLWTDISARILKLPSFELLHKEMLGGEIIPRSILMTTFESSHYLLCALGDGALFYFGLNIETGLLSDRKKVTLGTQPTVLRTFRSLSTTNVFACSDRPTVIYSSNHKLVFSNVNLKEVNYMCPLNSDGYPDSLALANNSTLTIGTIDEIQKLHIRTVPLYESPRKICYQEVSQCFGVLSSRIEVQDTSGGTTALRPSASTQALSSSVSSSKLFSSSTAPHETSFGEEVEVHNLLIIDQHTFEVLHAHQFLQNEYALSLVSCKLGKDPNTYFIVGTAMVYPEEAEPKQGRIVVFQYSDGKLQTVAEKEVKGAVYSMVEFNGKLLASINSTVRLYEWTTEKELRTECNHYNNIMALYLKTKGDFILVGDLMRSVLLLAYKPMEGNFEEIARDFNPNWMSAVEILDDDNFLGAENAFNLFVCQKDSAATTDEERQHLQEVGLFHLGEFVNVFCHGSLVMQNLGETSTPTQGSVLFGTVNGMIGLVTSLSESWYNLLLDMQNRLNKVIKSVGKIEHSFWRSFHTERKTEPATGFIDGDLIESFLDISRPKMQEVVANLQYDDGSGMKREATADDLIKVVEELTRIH
UniProt Q9UMR2: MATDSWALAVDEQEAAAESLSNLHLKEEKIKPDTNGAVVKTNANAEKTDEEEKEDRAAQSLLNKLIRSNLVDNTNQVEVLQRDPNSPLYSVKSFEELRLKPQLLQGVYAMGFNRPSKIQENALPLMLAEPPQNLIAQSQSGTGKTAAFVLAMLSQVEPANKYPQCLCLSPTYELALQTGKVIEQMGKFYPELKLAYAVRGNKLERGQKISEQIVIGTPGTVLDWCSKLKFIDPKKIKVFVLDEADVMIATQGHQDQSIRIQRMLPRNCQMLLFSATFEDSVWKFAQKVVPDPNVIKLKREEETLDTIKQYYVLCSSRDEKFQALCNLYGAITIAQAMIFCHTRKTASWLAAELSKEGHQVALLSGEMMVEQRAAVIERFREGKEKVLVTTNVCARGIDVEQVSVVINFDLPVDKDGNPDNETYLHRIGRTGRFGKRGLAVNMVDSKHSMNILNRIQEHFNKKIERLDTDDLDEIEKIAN
UniProt Q92841: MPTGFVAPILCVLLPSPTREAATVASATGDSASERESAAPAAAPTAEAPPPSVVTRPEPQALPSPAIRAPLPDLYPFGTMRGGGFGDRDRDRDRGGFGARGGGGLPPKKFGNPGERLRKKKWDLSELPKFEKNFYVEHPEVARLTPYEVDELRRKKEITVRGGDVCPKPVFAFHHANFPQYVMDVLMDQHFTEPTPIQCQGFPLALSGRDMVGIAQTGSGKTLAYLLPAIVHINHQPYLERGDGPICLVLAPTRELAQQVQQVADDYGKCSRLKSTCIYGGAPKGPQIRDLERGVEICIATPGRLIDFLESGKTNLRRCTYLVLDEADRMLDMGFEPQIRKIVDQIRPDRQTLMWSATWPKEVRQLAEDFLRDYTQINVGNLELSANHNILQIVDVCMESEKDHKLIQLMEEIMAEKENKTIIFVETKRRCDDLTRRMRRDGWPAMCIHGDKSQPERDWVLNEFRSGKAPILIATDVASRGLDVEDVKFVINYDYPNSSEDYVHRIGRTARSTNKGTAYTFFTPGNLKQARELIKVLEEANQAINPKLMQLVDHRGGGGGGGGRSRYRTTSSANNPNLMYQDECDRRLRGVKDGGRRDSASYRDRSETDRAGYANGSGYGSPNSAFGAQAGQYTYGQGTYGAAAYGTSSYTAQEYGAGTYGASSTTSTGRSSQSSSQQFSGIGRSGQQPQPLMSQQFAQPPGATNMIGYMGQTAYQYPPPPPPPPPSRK
UniProt Q6P158: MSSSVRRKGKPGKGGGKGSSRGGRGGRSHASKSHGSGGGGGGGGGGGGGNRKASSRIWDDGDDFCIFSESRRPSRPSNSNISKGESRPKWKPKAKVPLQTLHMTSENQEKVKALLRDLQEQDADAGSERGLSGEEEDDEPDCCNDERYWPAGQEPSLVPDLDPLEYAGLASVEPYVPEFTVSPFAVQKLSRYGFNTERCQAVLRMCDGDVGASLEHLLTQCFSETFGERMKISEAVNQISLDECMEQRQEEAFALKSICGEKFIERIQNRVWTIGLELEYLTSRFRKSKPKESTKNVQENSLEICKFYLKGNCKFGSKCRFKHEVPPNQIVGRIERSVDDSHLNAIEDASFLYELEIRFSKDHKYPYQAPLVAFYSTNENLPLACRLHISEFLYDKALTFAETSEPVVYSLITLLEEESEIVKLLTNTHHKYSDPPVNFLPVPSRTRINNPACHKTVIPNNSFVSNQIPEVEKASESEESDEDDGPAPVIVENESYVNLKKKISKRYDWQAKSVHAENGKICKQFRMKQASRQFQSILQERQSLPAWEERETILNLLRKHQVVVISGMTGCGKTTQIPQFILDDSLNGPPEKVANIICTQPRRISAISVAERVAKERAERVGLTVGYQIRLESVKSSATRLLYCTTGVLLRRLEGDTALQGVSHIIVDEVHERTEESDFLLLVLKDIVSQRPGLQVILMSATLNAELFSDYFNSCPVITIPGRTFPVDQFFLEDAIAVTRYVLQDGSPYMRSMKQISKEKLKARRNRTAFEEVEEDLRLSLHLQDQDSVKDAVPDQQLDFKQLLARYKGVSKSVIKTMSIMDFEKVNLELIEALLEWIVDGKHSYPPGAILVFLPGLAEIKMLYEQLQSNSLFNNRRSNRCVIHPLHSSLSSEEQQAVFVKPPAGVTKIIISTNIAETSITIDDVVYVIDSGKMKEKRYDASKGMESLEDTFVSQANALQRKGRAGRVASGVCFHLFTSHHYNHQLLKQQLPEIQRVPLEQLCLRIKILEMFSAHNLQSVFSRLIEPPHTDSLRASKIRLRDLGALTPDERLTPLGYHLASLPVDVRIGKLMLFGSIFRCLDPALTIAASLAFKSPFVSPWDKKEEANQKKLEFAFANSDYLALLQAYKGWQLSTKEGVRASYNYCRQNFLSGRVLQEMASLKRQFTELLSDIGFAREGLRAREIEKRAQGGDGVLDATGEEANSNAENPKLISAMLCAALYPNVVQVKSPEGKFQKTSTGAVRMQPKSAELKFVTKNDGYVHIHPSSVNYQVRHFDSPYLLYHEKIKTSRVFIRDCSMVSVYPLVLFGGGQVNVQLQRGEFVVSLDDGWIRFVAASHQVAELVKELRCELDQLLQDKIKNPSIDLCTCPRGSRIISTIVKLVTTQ

Assays:
Assay in all cases: log2 fold change, soluble protein after heating vs DMSO (PISA); higher = thermal stabilisation; K562 cells, 10 uM, 30 min; active = over 0.2 and 3.5 SD of the protein, either way, in both replicates (recomputed)
[1] = compound: CC1=C(C=C(C=C1)NC(=O)C2=CC(=CC=C2)C(C)(C)C#N)NC3=CC4=C(C=C3)N=CN(C4=O)C
Method in brief: (§1)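 K562 cells at 2×10^6 cells/mL were given 10 μM compound for 30 min. Aliquots then went through 3 min of heating across 48°C-58°C, were pooled, and were extracted in PBS with 0.5% NP-40 at 4°C, and the supernatant after 21,000xg for 90 min was quantified by TMTpro 16plex LC-MS/MS with channel sums equalised. Thermal stability relative to control samples, from duplicates, is given as log2 fold change.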

[2] = compound: CC1=C(C=C(C=C1)NC(=O)C2=CC(=CC=C2)N(C)C)NC(=O)C3=CC=C(C=C3)O
Method in brief: as §1

[3] = compound: CC1=CC=C(C=C1)SC2=C3C=C(SC3=CN=C2)C(=O)N
Method in brief: as §1

[4] = compound: CC1=NC(=CC=C1)C2=C(N=C(N2)C(C)(C)C)C3=CC4=NC=CN=C4C=C3
Method in brief: as §1

Nexturastat A = compound: CCCCN(Cc1ccc(C(=O)NO)cc1)C(=O)Nc1ccccc1 [Nexturastat A]
Method in brief: as §1

vemurafenib = compound: CCCS(=O)(=O)Nc1ccc(F)c(C(=O)c2c[nH]c3ncc(-c4ccc(Cl)cc4)cc23)c1F [vemurafenib]
Method in brief: as §1

[5] = compound: CCCS(=O)(=O)Nc1ccc(F)c(C(=O)c2c[nH]c3ncc(Cl)cc23)c1F
Method in brief: as §1

[6] = compound: CCCc1cc(C)[nH]c(=O)c1CNC(=O)c1cc(-c2ccnc(N3CCN(C)CC3)c2)cc2c1cnn2C(C)C
Method in brief: as §1

givinostat = compound: CCN(CC)Cc1ccc2cc(COC(=O)Nc3ccc(C(=O)NO)cc3)ccc2c1 [givinostat]
Method in brief: as §1

barasertib = compound: CCN(CCCOc1ccc2c(Nc3cc(CC(=O)Nc4cccc(F)c4)[nH]n3)ncnc2c1)CCOP(=O)(O)O [barasertib]
Method in brief: as §1

[7] = compound: CC[C@@H]1C(=O)N(C)c2cnc(Nc3ccc(C(=O)NC4CCN(C)CC4)cc3OC)nc2N1C1CCCC1
Method in brief: as §1

volasertib = compound: CC[C@@H]1C(=O)N(C)c2cnc(Nc3ccc(C(=O)N[C@H]4CC[C@H](N5CCN(CC6CC6)CC5)CC4)cc3OC)nc2N1C(C)C [volasertib]
Method in brief: as §1

[8] = compound: CC[C@H](C)N1C=C(C2=C(C=C(C=C21)C3=CN=C(C=C3)N4CCNCC4)C(=O)NCC5=C(C=C(NC5=O)C)C)C
Method in brief: as §1

epoxomicin = compound: CC[C@H](C)[C@@H](C(=O)N[C@@H]([C@@H](C)O)C(=O)N[C@@H](CC(C)C)C(=O)[C@]1(CO1)C)NC(=O)[C@H]([C@@H](C)CC)N(C)C(=O)C [epoxomicin]
Method in brief: as §1

[9] = compound: CCn1c(C(=O)N(C2CC2)C2CC2)cc2c3c(ncn3C)c(Nc3cc(C)n(C)n3)nc21
Method in brief: as §1

[10] = compound: CCn1cc(-c2ccnc3[nH]c(-c4cccc(CN(C)C)c4)cc23)c(-c2ccc(NC(=O)N(C)C)cc2)n1
Method in brief: as §1

[11] = compound: CN(C)CC(=O)Nc1ccc2[nH]c(=O)c3ccccc3c2c1
Method in brief: as §1

rosiglitazone = compound: CN(CCOC1=CC=C(C=C1)C[C@H]2C(=O)NC(=O)S2)C3=CC=CC=N3 (racemic) [rosiglitazone]
Method in brief: as §1

[12] = compound: CN1C2=C(C3=C1C(=O)N(N=C3)CC4=CC(=CC=C4)N)SC(=C2)S(=O)C
Method in brief: as §1

[13] = compound: CN1CCC(CNc2ccc3ncc(-c4cccc(OC(F)(F)F)c4)n3n2)CC1
Method in brief: as §1

Measured: log2 fold change

DMAC2 isoform 4 (UniProt Q9NW81)
inactive: [1] -0.068 | [2] 0.074 | [3] 0.084 | [4] 0.034 | Nexturastat A -0.02 | vemurafenib 0.008 | [5] 0.084 | [6] -0.005 | givinostat -0.003 | barasertib -0.162 | [7] 0.087 | volasertib -0.18 | [8] -0.036 | epoxomicin 0.069 | [9] -0.151 | [10] -0.003 | [11] -0.027 | rosiglitazone 0.071 | [12] -0.011 | [13] -0.151

DHCR24 (UniProt Q15392)
active: givinostat 1.21 | volasertib 1.21
inactive: [1] 0.248 | [2] 0.01 | [3] -0.003 | [4] -0.043 | Nexturastat A 0.004 | vemurafenib -0.114 | [5] -0.012 | [6] 0.434 | barasertib 0.088 | [7] 0.769 | [8] 0.104 | epoxomicin -0.056 | [10] 0.06 | [11] 0.236 | [12] -0.094 | [13] 0.525

DNAH8 (UniProt Q96JB1)
inactive: [1] -0.048 | [2] 0.095 | [3] -0.041 | [4] -0.09 | Nexturastat A 0.1 | vemurafenib 0.059 | [5] -0.082 | [6] -0.052 | givinostat 0.244 | barasertib -0.046 | [7] 0.065 | volasertib 0.208 | [8] -0.155 | epoxomicin -0.154 | [9] -0.158 | [11] -0.01 | rosiglitazone 0.087 | [12] -0.147

DDX39A (UniProt O00148)
inactive: [1] -0.018 | [2] -0.016 | [3] 0.02 | [4] 0.027 | Nexturastat A 0.015 | vemurafenib 0.004 | [5] 0.017 | [6] 0.074 | givinostat 0.076 | barasertib 0.035 | [7] 0.037 | volasertib -0.104 | [8] 0.034 | epoxomicin -0.096 | [10] -0.123 | [11] -0.002 | [12] 0.038 | [13] -0.016

DDT (UniProt P30046)
inactive: [1] -0.058 | [2] 0.004 | [3] 0.014 | [4] -0.033 | Nexturastat A -0.051 | vemurafenib -0.037 | [5] -0.018 | [6] -0.046 | givinostat -0.014 | barasertib 0.003 | [7] -0.002 | volasertib 0.025 | [8] -0.026 | epoxomicin 0.143 | [9] 0.032 | [10] -0.017 | [11] 0.098 | rosiglitazone -0.005 | [12] 0.009 | [13] -0.003

DCXR (UniProt Q7Z4W1)
inactive: [1] -0.036 | [2] 0.01 | [3] 0.011 | [4] 0.005 | Nexturastat A -0.085 | vemurafenib -0.041 | [5] -0.007 | [6] -0.082 | givinostat -0.016 | barasertib -0.025 | [7] 0.019 | volasertib -0.005 | [8] -0.062 | epoxomicin -0.013 | [9] 0.024 | [10] 0.019 | [11] 0.004 | rosiglitazone -0.01 | [12] -0.056 | [13] -0.005

DDAH2 (UniProt O95865)
inactive: [1] -0.034 | [2] -0.075 | [3] -0.01 | [4] 0 | Nexturastat A 0.048 | vemurafenib -0.097 | [5] -0.015 | [6] -0.049 | givinostat -0.107 | barasertib 0.042 | [7] 0.004 | volasertib 0.019 | [8] -0.032 | epoxomicin 0.015 | [9] 0.032 | [10] 0.006 | [11] -0.088 | rosiglitazone 0 | [12] -0.073 | [13] 0.036

DDRGK1 (UniProt Q96HY6)
inactive: [1] 0.016 | [2] -0.024 | [3] -0.051 | [4] -0.009 | Nexturastat A 0.057 | vemurafenib -0.025 | [5] -0.073 | [6] -0.011 | givinostat 0.055 | barasertib -0.042 | [7] 0.023 | volasertib -0.024 | [8] -0.048 | epoxomicin 0.066 | [9] 0.003 | [10] 0.02 | [11] -0.068 | rosiglitazone 0.037 | [12] -0.086 | [13] 0.028

DKC1 (UniProt O60832)
inactive: [1] -0.029 | [2] 0.006 | [3] -0.049 | [4] -0.047 | Nexturastat A 0.129 | vemurafenib -0.03 | [5] -0.028 | [6] 0.03 | givinostat 0.032 | barasertib -0.095 | [7] 0.244 | volasertib 0.193 | [8] -0.042 | epoxomicin -0.059 | [9] 0.007 | [10] 0.122 | [11] -0.038 | rosiglitazone -0.095 | [12] 0.144 | [13] 0.237

DHRS1 (UniProt Q96LJ7)
inactive: [1] 0.357 | [2] -0.143 | [3] -0.166 | [4] -0.202 | Nexturastat A 0.096 | vemurafenib 0.29 | [5] -0.079 | [6] 0.088 | givinostat 0.068 | barasertib -0.05 | [7] 0.164 | volasertib 0.302 | [8] 0.039 | epoxomicin -0.062 | [10] -0.098 | [11] -0.048 | [12] -0.051 | [13] 0.065

DHCR7 (UniProt Q9UBM7)
inactive: [1] -0.037 | [2] -0.028 | [3] -0.055 | [4] 0.023 | Nexturastat A 0.104 | vemurafenib 0.011 | [5] 0.039 | [6] 0.139 | barasertib 0.204 | [7] 0.409 | [8] 0.054 | epoxomicin 0.154 | [11] 0.085 | [12] -0.055 | [13] 0.203
active: givinostat 0.808 | volasertib 1.68 | [10] 0.522

DDB1 (UniProt Q16531)
inactive: [1] -0.012 | [2] 0.011 | [3] 0.006 | [4] 0 | Nexturastat A -0.036 | vemurafenib -0.012 | [5] -0.003 | [6] -0.027 | givinostat 0 | barasertib -0.01 | [7] 0.045 | volasertib 0.036 | [8] -0.032 | epoxomicin -0.024 | [10] 0.009 | [11] -0.005 | [12] -0.028 | [13] 0

DDX19B (UniProt Q9UMR2)
inactive: [1] -0.053 | [2] -0.039 | [3] 0.046 | [4] 0.052 | Nexturastat A -0.019 | vemurafenib 0.037 | [5] 0.067 | [6] 0.041 | givinostat 0.034 | barasertib 0.011 | [7] -0.083 | volasertib -0.19 | [8] 0.06 | epoxomicin 0.024 | [9] -0.006 | [10] -0.023 | [11] 0.022 | rosiglitazone 0.025 | [12] -0.046 | [13] -0.097

DDX17 (UniProt Q92841)
inactive: [1] 0.059 | [2] -0.065 | [3] -0.046 | [4] 0.047 | Nexturastat A 0.064 | vemurafenib 0.053 | [5] 0.081 | [6] 0.006 | givinostat 0.059 | barasertib 0.009 | [7] -0.068 | volasertib -0.127 | [8] 0.047 | epoxomicin 0.043 | [9] -0.046 | [10] -0.036 | [11] 0.035 | rosiglitazone 0.005 | [12] 0.021 | [13] 0.14

DHX57 (UniProt Q6P158)
inactive: [1] 0.013 | [2] -0.01 | [3] -0.009 | [4] -0.055 | Nexturastat A 0.116 | vemurafenib 0.005 | [5] 0.011 | [6] 0.122 | givinostat -0.006 | barasertib -0.073 | [7] 0.139 | volasertib 0.088 | [8] 0.03 | epoxomicin -0.056 | [9] 0.004 | [10] 0.049 | [11] -0.025 | rosiglitazone -0.047 | [12] 0.153 | [13] 0.104

DHRS4 (UniProt Q9BTZ2)
inactive: [1] -0.024 | [2] 0.031 | [3] 0.012 | [4] 0.046 | Nexturastat A -0.167 | vemurafenib 0.013 | [5] 0.04 | [6] 0.015 | givinostat -0.022 | barasertib -0.005 | [7] 0.082 | volasertib 0.159 | [8] 0.016 | epoxomicin 0.047 | [9] 0.011 | [10] 0.042 | [11] -0.003 | rosiglitazone 0.02 | [12] -0.085 | [13] 0.073

DIAPH1 (UniProt O60610)
inactive: [1] 0.018 | [2] -0.05 | [3] 0.025 | [4] -0.049 | Nexturastat A 0.19 | vemurafenib 0.041 | [5] 0.062 | [6] 0.08 | givinostat 0.051 | barasertib 0.077 | [7] 0.012 | volasertib -0.211 | [8] 0.09 | epoxomicin -0.004 | [10] 0.055 | [11] 0.053 | [12] 0.168 | [13] -0.012
